From publication PMC6997367
These are yes or no findings as the source states them, for the method shown. Binding seen in cells or lysates may run through a third protein. Some results given as binding are weak or reduced against the parent protein; the word gives no strength.

Chains of the proteins cited; added tags and fusions are not shown. Lines headed by an entry give the natural chain unless they say otherwise; changes in a name come on top. A line that says so, or that is headed by a name, gives the form on record, which may keep a tag or linker.
UniProt Q9Y297: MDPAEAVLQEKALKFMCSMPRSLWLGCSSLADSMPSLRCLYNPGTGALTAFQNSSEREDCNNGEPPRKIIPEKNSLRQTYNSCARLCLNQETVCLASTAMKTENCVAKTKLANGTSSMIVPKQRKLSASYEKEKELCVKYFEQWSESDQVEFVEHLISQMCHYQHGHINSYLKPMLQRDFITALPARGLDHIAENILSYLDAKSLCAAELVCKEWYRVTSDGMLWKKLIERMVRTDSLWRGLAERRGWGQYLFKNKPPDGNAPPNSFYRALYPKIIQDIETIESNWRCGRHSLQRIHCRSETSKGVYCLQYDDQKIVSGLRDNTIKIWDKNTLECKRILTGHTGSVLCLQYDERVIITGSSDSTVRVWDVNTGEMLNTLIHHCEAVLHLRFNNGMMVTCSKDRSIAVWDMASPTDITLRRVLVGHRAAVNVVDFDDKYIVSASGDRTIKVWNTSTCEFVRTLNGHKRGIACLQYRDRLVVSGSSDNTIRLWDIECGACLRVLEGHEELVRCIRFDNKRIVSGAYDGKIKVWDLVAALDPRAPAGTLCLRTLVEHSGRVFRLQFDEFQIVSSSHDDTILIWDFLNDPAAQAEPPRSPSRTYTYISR
FLAG-TOP2β (wild-type) (Q02880-2, form named): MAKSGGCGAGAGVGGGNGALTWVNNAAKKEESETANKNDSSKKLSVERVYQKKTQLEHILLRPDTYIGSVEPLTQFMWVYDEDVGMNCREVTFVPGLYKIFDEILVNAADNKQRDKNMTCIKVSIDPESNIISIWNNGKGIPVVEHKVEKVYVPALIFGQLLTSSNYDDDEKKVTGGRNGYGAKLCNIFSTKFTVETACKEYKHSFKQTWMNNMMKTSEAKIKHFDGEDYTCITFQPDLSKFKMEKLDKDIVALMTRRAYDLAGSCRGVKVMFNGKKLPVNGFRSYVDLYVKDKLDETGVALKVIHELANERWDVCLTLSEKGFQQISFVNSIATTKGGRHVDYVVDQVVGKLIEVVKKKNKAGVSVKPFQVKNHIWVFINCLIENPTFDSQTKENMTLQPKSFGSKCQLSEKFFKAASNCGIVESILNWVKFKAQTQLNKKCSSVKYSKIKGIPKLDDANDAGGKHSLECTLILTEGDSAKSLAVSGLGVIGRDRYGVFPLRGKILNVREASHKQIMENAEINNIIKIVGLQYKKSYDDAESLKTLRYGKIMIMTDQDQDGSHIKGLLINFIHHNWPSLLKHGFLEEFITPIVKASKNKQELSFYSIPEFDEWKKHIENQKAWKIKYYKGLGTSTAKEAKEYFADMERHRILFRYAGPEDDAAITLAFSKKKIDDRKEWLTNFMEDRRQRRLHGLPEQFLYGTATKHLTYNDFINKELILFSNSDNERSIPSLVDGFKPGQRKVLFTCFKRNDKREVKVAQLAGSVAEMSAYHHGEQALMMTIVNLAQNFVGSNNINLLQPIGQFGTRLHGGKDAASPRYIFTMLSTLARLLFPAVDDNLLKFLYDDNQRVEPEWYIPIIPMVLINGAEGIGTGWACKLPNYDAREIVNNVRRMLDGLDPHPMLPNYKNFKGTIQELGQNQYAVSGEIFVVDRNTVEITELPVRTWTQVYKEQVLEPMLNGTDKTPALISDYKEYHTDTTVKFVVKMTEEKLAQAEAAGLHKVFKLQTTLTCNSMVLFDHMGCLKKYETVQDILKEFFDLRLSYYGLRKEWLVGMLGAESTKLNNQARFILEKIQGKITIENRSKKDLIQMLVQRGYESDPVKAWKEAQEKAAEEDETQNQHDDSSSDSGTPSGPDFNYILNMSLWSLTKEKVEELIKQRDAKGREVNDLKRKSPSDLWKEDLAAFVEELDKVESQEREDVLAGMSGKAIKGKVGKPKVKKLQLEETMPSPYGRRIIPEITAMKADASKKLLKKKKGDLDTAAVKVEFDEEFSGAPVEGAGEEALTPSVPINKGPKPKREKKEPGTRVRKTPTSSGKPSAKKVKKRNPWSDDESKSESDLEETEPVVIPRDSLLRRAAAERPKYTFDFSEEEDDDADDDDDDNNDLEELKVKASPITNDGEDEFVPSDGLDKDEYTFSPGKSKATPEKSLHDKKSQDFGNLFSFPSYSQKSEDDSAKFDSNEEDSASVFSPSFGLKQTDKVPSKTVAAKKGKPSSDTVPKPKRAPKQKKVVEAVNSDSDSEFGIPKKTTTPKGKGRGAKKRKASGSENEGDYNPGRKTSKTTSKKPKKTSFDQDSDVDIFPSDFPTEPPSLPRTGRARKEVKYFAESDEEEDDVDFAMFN

How the values were obtained:
FLAG-β-TrCP1 = FLAG-β-TrCP1 (UniProt Q9Y297); test: co-IP; HEK293 cells transfected with FLAG-β-TrCP1, left untreated or treated with VM-26 and MG132 (20 μM) for 5 h; IP with anti-FLAG beads, immunoblot
[1] = target: β-TrCP1 (endogenous, HeLa) (human (endogenous in HeLa)) (UniProt Q9Y297); test: co-IP; HeLa cell lysate; IP with β-TrCP1 antibody or normal rabbit IgG; immunoblot with anti-TOP2β
FLAG-TOP2β (wild-type) = FLAG-TOP2β (wild-type) (UniProt Q02880); test: co-IP; HEK293 cells transfected with the indicated plasmids (TOP2β wild type or degron mutants), treated with MG132 and VM-26 for 5 h; IP with anti-FLAG beads, immunoblot

endogenous TOP2β (HEK293) (from UniProt Q02880-2 1-1621)
binding (FLAG-β-TrCP1): binds

endogenous TOP2β (HeLa) (from UniProt Q02880-2 1-1621)
binding [1]: binds

β-TrCP1 (in the IP of Fig. 3c) (from UniProt Q9Y297 1-605)
binding (FLAG-TOP2β (wild-type)): binds
